This passage reports binding results from article PMC11352367 (Cells, 2024).

These are yes or no findings as the source states them, for the method shown. A result given as binding can be weak or reduced; the word gives no strength. Tags and fused reporters may be left off the sequences shown.

Assay [1] addresses Rabbit skeletal muscle-derived α-actinin (rabbit). Kind of assay: high-speed atomic force microscopy; α-actinin (50 nM) adsorbed on bare mica, SYNPO2La (28 nM) added to the observation buffer (5 mM Tris-HCl pH 8.0, 0.2 mM CaCl2, 0.5 mM DTT, 100 mM KCl, 2 mM MgCl2), room temperature; both purified.
The target is the same in assay [2]. Kind of assay: high-speed atomic force microscopy; actin filaments held on a positively charged lipid bilayer (DPPC:DPTAP 7:3) on mica; α-actinin (140 nM) and/or SYNPO2La (120 or 200 nM) injected into the observation buffer, room temperature; both purified.
Assay [3] shares this target. The assay can be described thus: negative-stain transmission electron microscopy; 1 μM α-actinin with 1 μM SYNPO2La or SYNPO2Lb incubated 3 h at room temperature, negatively stained with 3% uranyl acetate; both purified.

B1: His-tagged human SYNPO2La (synaptopodin 2-like protein, long form) (protein, UniProt Q9H987 1-977)
chain: MGAEEEVLVTLSGGAPWGFRLHGGAEQRKPLQVSKIRRRSQAGRAGLRERDQLLAINGVSCTNLSHASAMSLIDASGNQLVLTVQRLADEGPVQSPSPHELQVLSPLSPLSPEPPGAPVPQPLQPGSLRSPPDSEAYYGETDSDADGPATQEKPRRPRRRGPTRPTPPGAPPDEVYLSDSPAEPAPTIPGPPSQGDSRVSSPSWEDGAALQPPPAEALLLPHGPLRPGPHLIPMVGPVPHPVAEDLTTTYTQKAKQAKLQRAESLQEKSIKEAKTKCRTIASLLTAAPNPHSKGVLMFKKRRQRAKKYTLVSFGAAAGTGAEEEDGVPPTSESELDEEAFSDARSLTNQSDWDSPYLDMELARAGSRASEGQGSGLGGQLSEVSGRGVQLFEQQRQRADSSTQELARVEPAAMLNGEGLQSPPRAQSAPPEAAVLPPSPLPAPVASPRPFQPGGGAPTPAPSIFNRSARPFTPGLQGQRPTTTSVIFRPLAPKRANDSLGGLSPAPPPFLSSQGPTPLPSFTSGVPSHAPVSGSPSTPRSSGPVTATSSLYIPAPSRPVTPGGAPEPPAPPSAAAMTSTASIFLSAPLRPSARPEAPAPGPGAPEPPSAREQRISVPAARTGILQEARRRGTRKQMFRPGKEETKNSPNPELLSLVQNLDEKPRAGGAESGPEEDALSLGAEACNFMQPVGARSYKTLPHVTPKTPPPMAPKTPPPMTPKTPPPVAPKPPSRGLLDGLVNGAASSAGIPEPPRLQGRGGELFAKRQSRADRYVVEGTPGPGLGPRPRSPSPTPSLPPSWKYSPNIRAPPPIAYNPLLSPFFPQAARTLPKAQSQGPRATPKQGIKALDFMRHQPYQLKTAMFCFDEVPPTPGPIASGSPKTARVQEIRRFSTPAPQPTAEPLAPTVLAPRAATTLDEPIWRTELASAPVPSPAPPPEAPRGLGASPSSCGFQVARPRFSATRTGLQAHVWRPGAGHQ
Regarding B1, the binding entry in assay [1], in assay [2] and in assay [3] was “binds” throughout.

B2: His-tagged human SYNPO2Lb (synaptopodin 2-like protein, short form) (protein, UniProt Q9H987-2 1-753)
chain: METFEPISQEPLSQASYDKAPDPVPELQDSFYAELQRAESLQEKSIKEAKTKCRTIASLLTAAPNPHSKGVLMFKKRRQRAKKYTLVSFGAAAGTGAEEEDGVPPTSESELDEEAFSDARSLTNQSDWDSPYLDMELARAGSRASEGQGSGLGGQLSEVSGRGVQLFEQQRQRADSSTQELARVEPAAMLNGEGLQSPPRAQSAPPEAAVLPPSPLPAPVASPRPFQPGGGAPTPAPSIFNRSARPFTPGLQGQRPTTTSVIFRPLAPKRANDSLGGLSPAPPPFLSSQGPTPLPSFTSGVPSHAPVSGSPSTPRSSGPVTATSSLYIPAPSRPVTPGGAPEPPAPPSAAAMTSTASIFLSAPLRPSARPEAPAPGPGAPEPPSAREQRISVPAARTGILQEARRRGTRKQMFRPGKEETKNSPNPELLSLVQNLDEKPRAGGAESGPEEDALSLGAEACNFMQPVGARSYKTLPHVTPKTPPPMAPKTPPPMTPKTPPPVAPKPPSRGLLDGLVNGAASSAGIPEPPRLQGRGGELFAKRQSRADRYVVEGTPGPGLGPRPRSPSPTPSLPPSWKYSPNIRAPPPIAYNPLLSPFFPQAARTLPKAQSQGPRATPKQGIKALDFMRHQPYQLKTAMFCFDEVPPTPGPIASGSPKTARVQEIRRFSTPAPQPTAEPLAPTVLAPRAATTLDEPIWRTELASAPVPSPAPPPEAPRGLGASPSSCGFQVARPRFSATRTGLQAHVWRPGAGHQ
For the molecule B2, in assay [3], the binding entry is reported as “binds”.
